These results are taken from patent US4661516A, “Diaminocyclohexane platinum complexes” (Research Corporation, priority 1984, dated 1987).

This series deals with L1210 leukemia cells (L1210/PDD). As to the kind of experiment: In vitro cytotoxicity / cross-resistance, L1210/PDD (L1210/DDP) cells resistant to cisdiamminedichloroplatinum(II). Type of series: cell-based. The note with it: L1210/DDP vs L1210/0. The procedure:
Four ml of cell suspension were added to culture tubes and the appropriate concentration (0.01, 0.1, 1 or 10 μg/ml final drug concentration) was added. After 96 hours the cell concentration of control and experimental cultures were calculated with the aid of a Coulter Counter® Model ZBf and the percent inhibition calculated.
Consider `NC1CCCCC1N.O=C([O-])C1CCCN1.O=C([O-])C1CCCN1.[Pt+2]` [Compound 16, cis-bis-L-prolinato(DACH)Pt(II)], for which the “Resistance Factor” value was found to be 0.6.
For the molecule `NC1CCCCC1N.O.O.O=C([O-])CN(CCO)CC(=O)[O-].[Pt+2]` [Compound 39, N--(2-Hydroxyethyl)-iminodiacetato(DACH)Pt(II).2H2 O], the “Resistance Factor” value was 1.3.
The value for `N[C@@H]1CCCC[C@H]1N.O=C([O-])CN(CCO)CC(=O)[O-].[Pt+2]` [Identifier No. 12a, mono-N--hydroxyethyliminodiacetato] was 1.3.
For `O.O.O=C([O-])C[N-]CC(=O)O.[NH-]C1CCCCC1[NH-].[Pt]` [Compound 11, iminodiacetato(DACH)Pt(II).2H2 O], the “Resistance Factor” value was found to be 0.4.
The value for `NC1CCCCC1N.O.O=C1OC(C(O)CO)C([O-])=C1O.O=C1OC(C(O)CO)C([O-])=C1O.[Pt+2]` (stereo not drawn) [Compound 3, cis-bis-ascorbato(DACH)Pt(II).1H2 O] was 1.0; that for “isocitratomonoethylester(DACH)Pt(II).1.5H2 O [Compound 21]” was 0.9; that for `NC1CCCCC1N.NCCOS(=O)(=O)[O-].NCCOS(=O)(=O)[O-].[Pt+2]` (stereo not drawn) [Compound 14, cis-bis-2-aminoethylsulfato(DACH)Pt(II)] was 0.9.
The same measure for `NC1CCCCC1N.O=C([O-])CN(CC(=O)[O-])Cc1ccccc1.[Pt+2]` [Compound 38, N--Benzyliminodiacetato(DACH)Pt(II)]: 0.8.
The value for `NC1CCCCC1N.O=C1O[C@H]([C@@H](O)C(=O)[O-])[C@H](O)[C@H]1O.O=C1O[C@H]([C@@H](O)C(=O)[O-])[C@H](O)[C@H]1O.[Pt+2]` [Compound 9, cis-bis-D-saccharato-1,4-lactone(DACH)Pt(II)] was 0.2.
`N.N.[Cl][Pt][Cl]` [DDP, diamminedichloroplatinum II, reference compound]: the “Resistance Factor” value was determined as 55.
The same measure for “mono-N--phenyliminodiacetato [Identifier No. 14a]”: 0.8.
The same measure for “mono-N--benzyliminodiacetato [Identifier No. 15a]”: 2.4.
The value for “cis-bis-D-monosaccharato(DACH)Pt(II).3H2 O [Compound 8]” was 0.3.
In the case of `NC(=O)CN(CC(=O)[O-])CC(=O)[O-].NC1CCCCC1N.[Pt+2]` [Compound 42, N--(2-Acetamido)-iminodiacetato(DACH)Pt(II).1/2H2 O], the “Resistance Factor” value is listed as 0.6.
The value for `NC1CCCCC1N.O=C1OC(C(O)CO)C([O-])=C1O.O=C1OC(C(O)CO)C([O-])=C1O.[Pt+2]` (mixture of isomers) [Compound 7, cis-bis-isoascorbato(DACH)Pt(II).3H2 O] was 0.9.
The value for `NC1CCCCC1N.O.O.O=C([O-])CN(CC(=O)[O-])c1ccccc1.[Pt+2]` [Compound 37, N--Phenyliminodiacetato(DACH)Pt(II).2H2 O] was 1.1.
The same measure for “furanedicarboxylato(DACH)Pt(II) [Compound 19]”: 0.9.
For the molecule `CN(CC(=O)[O-])CC(=O)[O-].NC1CCCCC1N.O.[Pt+2]` [Compound 28, N--Methyliminodiacetato(DACH)Pt(II).1H2 O], the “Resistance Factor” value stood at 0.8.
The value for `CN(CC(=O)[O-])CC(=O)[O-].N[C@@H]1CCCC[C@H]1N.[Pt+2]` [Identifier No. 11a, mono-N--methyliminodiacetato] was 2.4.
